Source: patent US8058227B2, “Method of treating fibrosis in a subject in need thereof comprising administering a composition comprising a CSD” (Medical University of South Carolina, priority 2006, dated 2011)
At least one structure is not confirmed: it was looked up by name or label, or the drawing left a doubt.

Assays:
[1] = test system: scleroderma lung fibroblasts (SLF); assay: Kinase (signaling) inhibitor treatment of SLF, Western blotting; format: cell-based, human; settings: 10 μM inhibitor, result in words
Excerpt: (§1) Fibroblasts were derived from lung tissue obtained at autopsy from scleroderma patients (SLF) and from age-, race-, and sex-matched normal subjects (NLF) and cultured as previously described (44). Cells were used in passages 2-4. The group of scleroderma patients fulfilled the criteria of American college of Rheumatology for the diagnosis of scleroderma with lung involvement. Normal human lung tissue was obtained from the Brain and Tissue Bank for Developmental Disorders (Baltimore, Md.) or from the National Disease Research Interchange (Philadelphia, Pa.). Scleroderma lung tissue was obtained from the Division of Pathology and Laboratory Medicine at the Medical University of South Carolina (MUSC). The study was approved by the Institutional Review Board for Human Subject Research at the MUSC.
(§2) U0126 (MEK inhibitor), SP600125 (JNK inhibitor), LY294002 (PI3 kinase inhibitor) and Akt inhibitor VIII were purchased from Calbiochem and dissolved in DMSO (mM). Cells in 6-well plates were treated with 10 μM of inhibitors in serum-free medium for 6 h (U0126) or 24 h for the other inhibitors prior to the harvesting of cells and medium.
(§3) Cell layers were harvested in boiling SDS-PAGE sample buffer; medium was dialyzed, lyophilized, and resuspended in sample buffer. Aliquots of culture medium or of cell layer representing material derived from the same number of cells was probed using the following primary antibodies and appropriate secondary antibodies. Culture medium: goat anti-human collagen I (AB758P) and rabbit anti-human tenascin-C (AB19011) from Chemicon International (Temecula, Calif.). Cell layer: rabbit antibodies against PKCα (sc-208), PKCε (sc-214), activated JNK (sc-12882), activated Akt Thr 308 (sc-166646R) and caveolin-1 (sc-894) from Santa Cruz Biotechnology (Santa Cruz, Calif.); rabbit antibodies against ERK 1/2 (9102), activated ERK 1/2 (9106), JNK (9252), Akt (9272), MEK 1/2 (9122), and activated MEK 1/2 (9121) from Cell Signaling (Beverly, Mass.); mouse monoclonal anti-ASMA (clone 1A4) from Sigma (Saint Louis, Mo.), and mouse monoclonal anti-actin (MAB1501) from Chemicon International (Temecula, Calif.).
(§4) Immunoreactive bands were quantified by densitometry using the Image 1.32J NIH software. For statistical analysis the raw densitometric data were processed and analyzed using the Prism 3.0 (GraphPad Software Inc.) statistical analysis software.

[2] = test system: normal lung fibroblasts (NLF); assay: Kinase (signaling) inhibitor treatment of NLF, Western blotting; format: cell-based, human; settings: 10 μM inhibitor, result in words
Excerpt: as §1, §2, §3, §4

| SMILES | ASMA expression [1] | Akt activation [1] | ERK activation [1] | JNK activation [1] | collagen expression [1] | tenascin-C expression [1] | Akt activation [2] | ERK activation [2] | JNK activation [2] | collagen expression [2] | tenascin-C expression [2] |
| --- | --- | --- | --- | --- | --- | --- | --- | --- | --- | --- | --- |
| Oc1c2ccccc2c2c3c(cccc13)N=N2 [SP600125] | inhibited | inhibited | inhibited | inhibited | consistent inhibitory effect | consistent inhibitory effect | inhibited | inhibited | inhibited | consistent inhibitory effect | consistent inhibitory effect |
| O=c1cc(N2CCOCC2)oc2c(-c3ccccc3)cccc12 [LY294002] | inhibited | inhibited | enhanced |  | inhibited | inhibited | inhibited | enhanced |  | inhibited | inhibited |
